Reference: paper PMC12800062

Target: T1, TGFBR3 (mouse (in primary FAPs from C57BL/6 mice)) (UniProt O88393)
T1 sequence: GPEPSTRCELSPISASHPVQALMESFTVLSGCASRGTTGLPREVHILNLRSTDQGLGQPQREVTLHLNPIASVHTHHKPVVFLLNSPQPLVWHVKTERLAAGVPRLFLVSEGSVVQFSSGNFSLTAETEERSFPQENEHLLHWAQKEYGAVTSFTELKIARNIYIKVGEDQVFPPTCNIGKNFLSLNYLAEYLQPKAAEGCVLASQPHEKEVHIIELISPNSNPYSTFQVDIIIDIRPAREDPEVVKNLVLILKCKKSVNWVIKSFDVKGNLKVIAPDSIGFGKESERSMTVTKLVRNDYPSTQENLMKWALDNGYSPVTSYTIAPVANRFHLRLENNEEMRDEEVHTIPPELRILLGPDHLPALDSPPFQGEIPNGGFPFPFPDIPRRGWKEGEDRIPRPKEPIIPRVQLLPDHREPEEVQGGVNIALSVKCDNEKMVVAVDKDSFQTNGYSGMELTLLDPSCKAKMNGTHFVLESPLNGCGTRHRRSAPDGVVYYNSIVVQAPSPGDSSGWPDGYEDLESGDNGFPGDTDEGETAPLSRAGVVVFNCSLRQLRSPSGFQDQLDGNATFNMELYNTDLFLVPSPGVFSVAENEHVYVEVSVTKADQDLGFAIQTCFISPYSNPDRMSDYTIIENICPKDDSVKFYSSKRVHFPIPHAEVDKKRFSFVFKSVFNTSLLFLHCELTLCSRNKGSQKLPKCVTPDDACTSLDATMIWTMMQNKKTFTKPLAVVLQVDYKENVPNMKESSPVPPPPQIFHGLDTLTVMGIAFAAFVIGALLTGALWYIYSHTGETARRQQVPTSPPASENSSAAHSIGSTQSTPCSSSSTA
Assay: affinity purification with mass spectrometry; CoIP of TGFBR3 from FAPs followed by LC-MS to screen for candidates that bind TGFBR3

binding: binds
B1: KRT10 (protein, UniProt P02535 1-570)
chain: MSVLYSSSSKQFSSSRSGGGGGGGSVRVSSTRGSLGGGYSSGGFSGGSFSRGSSGGGCFGGSSGGYGGFGGGGSFGGGYGGSSFGGGYGGSSFGGGYGGSSFGGAGFGGGGSFGGGSFGGGSYGGGFGGGGFGGDGGSLLSGNGRVTMQNLNDRLASYMDKVRALEESNYELEGKIKEWYEKHGNSSQREPRDYSKYYKTIEDLKGQILTLTTDNANVLLQIDNARLAADDFRLKYENEVTLRQSVEADINGLRRVLDELTLSKSDLEMQIESLNEELAYLKKNHEEEMRDLQNVSTGDVNVEMNAAPGVDLTQLLNNMRNQYEQLAEKNRKDAEEWFNQKSKELTTEIDSNIEQMSSHKSEITELRRTVQGLEIELQSQLALKQSLEASLAETEGRYCVQLSQIQSQISALEEQLQQIRAETECQNAEYQQLLDIKTRLENEIQTYRSLLEGEGSSSGGGGGRRGGSGGGSYGGSSGGGSYGGSSGGGGSYGGSSGGGGSYGGGSSGGGSHGGSSGGGYGGGSSSGGAGGHGGSSGGGYGGGSSSGGQGGSGGFKSSGGGDQSSKGPRY

No constants are given. Whether binding was seen depends on the method and setting. Binding seen in cells or lysates may run through a third protein. These calls come from enrichment with a bait or labelling near it, and not all partners need be listed.
